Laboratory results: PubChem BioAssay AID504467 (National Center for Advancing Translational Sciences (NCATS), 2011)
About 7,700 (2.3%) of roughly 330,000 compounds were called active. This list was built around the results that the source calls inconclusive (neither active nor inactive); the mix of calls is not that of the screen. Calls follow the shape of the dose curve; as a rule, active = well fitted inhibition curve with a large enough effect; inconclusive = small, poorly fitted or top-dose-only effect, or effect the other way; inactive = flat fitted curve, though single readings scatter. Potencies beside an inconclusive call are fits to weak or partial responses and may not hold up.

assay: qHTS screen for small molecules that inhibit ELG1-dependent DNA repair in human embryonic kidney (HEK293T) cells expressing luciferase-tagged ELG1; conditions: HEK293T ELG1-luciferase reporter, luminescence, 16 h, DNA damage induced by 5-fluorouridine; activity change, negative = inhibition: at 46.1 µM (top of the series); also: nearly all actives have a fitted effect of over 55% in size
How it was run: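 5-Fluorouridine DNA damage + compound/DMSO, 2,000 cells/well, 16 h, 37 °C/5% CO2. ONE-Glo, 30 min RT, luminescence. Readout = decrease in reporter signal.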
% is scaled to controls: 0 for no effect and ±100 for the full control effect; potency is read from the fitted curve at half-maximal effect.

Compound | activity change, negative = inhibition | Potency
O=C(NNc1c2ccccc2nc2ccccc12)c1ccc(O)cc1O | inactive: -20.9% | 
COc1ccccc1OCC(=O)O |  | inactive
COc1ccc(C(=O)CCC(=O)Nc2cccnc2)cc1OC | inactive: 19.7% | 
COc1ccc(C(=O)CCNc2ccc(C)c(Cl)c2)cc1 |  | inconclusive: 23.1 µM [activator, single point]
CCCCCCOc1ccc(/C(N)=N/O)cc1 |  | inconclusive: 10.3 µM [activator, partial curve]
CC(NC(=O)c1ccco1)C(c1cccs1)N1CCN(c2ccccc2)CC1 (stereo not given) |  | inconclusive: 9.2 µM [inhibitor, partial curve]
CN(C)c1ccc(/C=N/NC(=O)c2cc(-c3ccc4c(c3)OCO4)n[nH]2)cc1 | inactive: 26.8% | 
Cc1nn(CC(C)C(=O)N2CCN(S(=O)(=O)c3ccc(Cl)cc3)CC2)c(C)c1C (stereo not given) | inactive: -7.31% | 
CC1CC(C)CN(c2ccc(-n3cnnn3)cc2[N+](=O)[O-])C1 (stereo not given) | inactive: -6.15% | 
c1ccc(CSc2ccc(-c3cccnc3)nn2)cc1 |  | inconclusive: 20.6 µM [activator, partial curve]
CCOC(=O)COc1ccc(/C=C2/SC(=Nc3ccccc3)N(Cc3cccnc3)C2=O)cc1OC |  | inconclusive: 25.9 µM [inhibitor, single point]
O=C(CCCN1C(=O)NC2(CCCC2)C1=O)Nc1cccc(S(=O)(=O)N2CCOCC2)c1 | inactive: 10.3% | 
Brc1ccc(-c2ccc(CNCc3ccccn3)o2)cc1 | inactive: 27.6% | 
Nc1c(C(=O)N/N=C/c2ccc(Cl)cc2)cnn1-c1ccccc1 | inactive: 1.41% | 
COCC(=O)O[C@]1(CCN(C)CCCc2nc3ccccc3[nH]2)CCc2cc(F)ccc2[C@@H]1C(C)C |  | inconclusive: 20.6 µM [inhibitor, partial curve, poor fit]
O=C(Nc1nnc(C2=COCCO2)o1)c1ccc(S(=O)(=O)N2CCCCC2)cc1 |  | inconclusive: 23.1 µM [inhibitor, single point]
CC(=O)NC(N(C#N)c1nc(Cl)nc(N(C)C)n1)C(Cl)(Cl)Cl (stereo not given) |  | inconclusive: 18.3 µM [activator, partial curve]
COc1ccc2nc3n(c(=O)c2c1)-c1ccccc1C(=O)NC3Cc1ccccc1 (stereo not given) |  | inconclusive: 16.4 µM [activator, single point]
O=C(c1cccc(Cl)c1)N1CCN(Cc2c[nH]c3ccccc23)CC1 | inactive: 10.3% | 
CCOc1ccc(CN(CC)C(=O)Cc2c[nH]c3ccccc23)cc1OC | inactive: -6.47% | 
O=S(=O)(c1ccc(-c2cc(C(F)(F)F)on2)s1)N1CCCC1 |  | inconclusive: 10.3 µM [inhibitor, partial curve, poor fit]
Oc1ccc(CNc2ccccc2O)cc1 |  | inconclusive: 14.6 µM [activator, partial curve]
COc1ccc(N2CCN(C(CNC(=O)C(=O)NCCc3c[nH]c4ccccc34)c3ccco3)CC2)cc1 (stereo not given) |  | inconclusive: 13 µM [inhibitor, partial curve, poor fit]

Already shown: 2 of the compounds above.
Compound | activity change, negative = inhibition | Potency
CCOc1ccc(CN(CC)C(=O)Cc2c[nH]c3ccccc23)cc1OC | inactive: -6.47% | 
O=S(=O)(c1ccc(-c2cc(C(F)(F)F)on2)s1)N1CCCC1 |  | inconclusive: 10.3 µM [inhibitor, partial curve, poor fit]

Single entries from the results shown:
In Potency, COc1ccc(C(=O)CCNc2ccc(C)c(Cl)c2)cc1 reads inconclusive: 23.1 µM [activator, single point]
In activity change, negative = inhibition, CCOc1ccc(CN(CC)C(=O)Cc2c[nH]c3ccccc23)cc1OC reads inactive: -6.47%

Following part.

Compound | activity change, negative = inhibition | Potency
Cc1nn(C)cc1CN(C)C(=O)c1nn2c(c1Br)NC(c1cccs1)CC2C(F)(F)F (stereo not given) |  | inconclusive: 20.6 µM [inhibitor, single point]
COc1ccc(NC(=O)CCCCCN2C(=O)CCC2=O)cc1Cl | inactive: 0% | 
CCOC(=O)N1CCC(n2c(=S)[nH]c3cc(OCC)c(OCC)cc3c2=O)CC1 | inactive: -7.6% | 
COc1ccc2[nH]c(CN3CCN(CC=C(C)C)C(CCO)C3)c(C)c2c1 (stereo not given) | inactive: 18.2% | 
CCOc1ccc(-n2nnnc2SCC(=O)c2ccccc2)cc1 | inactive: 11.1% | 
COc1ccc(-c2c(-c3cc(OC)cc(OC)c3)n(C)c3ccc(-c4cc(F)cc(OC)c4)cc23)cc1 | inactive: 12.1% | 
CC(C)(C)NC(=O)CSc1nc(Cc2ccccc2)nc2ccccc12 |  | inconclusive: 10 µM [inhibitor, partial curve, poor fit]
CCOC(=O)c1c(NC(=O)c2ccc(N3C(=O)[C@@H]4[C@H](C3=O)[C@H]3C=C[C@@H]4C3)cc2)sc2c1CCCC2 |  | inconclusive: 14.6 µM [inhibitor, partial curve, poor fit]
COc1ccccc1N1CCN(Cc2nc3ccccc3c(=O)n2CC(C)=O)CC1 |  | inconclusive: 29.1 µM [inhibitor, single point]
CC(C)(C)C(=O)N1CCN(c2nc3ccccc3s2)CC1 |  | inconclusive: 4.61 µM [activator, partial curve]
COc1ccc(-c2cc(C(=O)OCC(=O)NC(C)C)c3ccccc3n2)cc1 |  | inconclusive: 18.3 µM [activator, single point]
CC(C)(C)NS(=O)(=O)c1cccc(S(=O)(=O)c2cccc(S(=O)(=O)NC(C)(C)C)c2)c1 |  | inconclusive: 14.6 µM [activator, partial curve]
CCCCCC(=O)Nc1ccc(-c2csc(C)n2)cc1 |  | inconclusive: 9.2 µM [activator, partial curve]
O=C(O)C[C@]1(C(=O)Nc2ccc(F)cc2)CC(/C=C/c2ccccc2)=NO1 | inactive: 4.24% | 
O=S1(=O)[C@H]2C[C@H](CO)O[C@@]2(CO)CN1Cc1ccc(-c2ccc(F)cc2)cc1 |  | inconclusive: 16.4 µM [inhibitor, partial curve]
Cc1ccc(OCC(O)Cn2c(=N)n(Cc3ccccc3)c3ccccc32)cc1 (stereo not given) |  | inconclusive: 20.6 µM [inhibitor, single point]
COc1cccc(CNC(=O)C(=O)NCCC2CCCCN2S(=O)(=O)c2cccs2)c1 (stereo not given) |  | inconclusive: 20.6 µM [inhibitor, single point]
CCOC(=O)c1cnc2c(C(=O)OCC)cnn2c1N |  | inconclusive: 2.59 µM [activator, full curve]
O=C(NCc1cccnc1)c1ccc(NS(=O)(=O)c2cccc([N+](=O)[O-])c2)cc1 | inactive: 5.49% | 
Cc1nc(NC(=O)c2cccc(-c3cc4ccccc4oc3=O)c2)ccc1Br |  | inconclusive: 18.4 µM [activator, single point]
COc1ccc(Nc2nc(CN3CCOCC3)nc3sc4c(c23)CCC(C)C4)cc1OC (stereo not given) |  | active: 6.51 µM
O=C(CCN1C(=O)S/C(=C\C=C\c2ccccc2)C1=O)Nc1ccc(O)cc1 |  | inconclusive: 16.4 µM [activator, partial curve]
